# Laboratory results from patent US20200071424A1.
# Results are given in words; binding and its absence hold for the method and conditions named. A result given as binding can be weak or reduced; the word gives no strength.
# How the values were obtained:
# [1] = target: baboon EL (baboon); assay: hybridoma screening ELISA; baboon EL heparin extract
# [2] = target: baboon EL (baboon); assay: ELISA; Ab captured on anti-mouse IgG-Fc; EL heparin extract
# [3] = target: cynomolgus monkey EL (cynomolgus monkey); assay: as above
# [4] = target: rabbit EL (rabbit); assay: as above
# [5] = target: baboon EL (baboon); assay: ELISA: antibody captured on anti-mouse IgG-Fc plate, EL heparin extract added, detection with biotin anti-C2-tag antibody and HRP-streptavidin, A450
# [6] = target: cynomolgus monkey EL (cynomolgus monkey); assay: as above
# [7] = target: rabbit EL (rabbit); assay: as above
# [8] = target: Chimeric EL [187-500] (mouse;human); assay: as above
Binder,binding [1],binding [2],binding [3],binding [4],binding [5],binding [6],binding [7],binding [8]
"13B3 (antibody, mouse IgG2a, V domains shown) VH: EVQLQQSGPELLKPGASVKISCKASGYTFTEYTMHWVKQSHGKSLEWIGSINPYYGGTSYNEKFKDKATLTVDKSSNTAYMEFRSLTSEDCAVYYCARYGNYVGYFDYWGQGTTLTVSS VL: ENVLTQSPAIMSASLGEKVTMSCRASSSVHYMYWYQQKSDASPKLWIYYTSNLAPGVPDRFSGSGSGNSYSLTISSMEGEDAATYYCQQFTSSPYTFGGGTKLEIK",binds,binds,binds,binds,binds,binds,binds,
"14E1 (antibody, mouse IgG1, V domains shown) VH: QVQLQQSGAELVKPGASVRLSCKASGYTFTKYTIHWVKQRSGQGLEWIGWFYPGSDSIKYNEKFKDKATLTADKSSRTVYMELSRLTSEDSAVYFCARHEEYTNSLAYWGQGTLVTVSA VL: DIQMTQTTSSLSASLGDRVTISCRASQDISNYLNWYQQQPDGTVKLLIYYTSRLHSGVPSRFSGSGSGTDYSLTISNLEQEDIATYFCQQGYTLPWTFGGGTNLEIK",binds,binds,binds,binds,binds,binds,binds,
"16B3 (antibody, mouse IgG2a, V domains shown) VH: DVKLVESGGGLVQPGGSLKLSCTASGFTFSGYTMSWVRQTPEKRLELVAEISFARDRAFYPDTVKGRFTISRDNAKNTLYLQMSSLKSEDTAMYYCTRLGGRNHDYWYFDVWGTGTTVTVSS VL: DIVLTQSPTSLAVSPGQRATISCRASESVEYYGTSLMQWYQQKPGQRPQLLIYAASNVESGVPARFSGSGSGTDFSLNIHPVEEDDIAVYFCQQSWKVPFTFGSGTKLEIK",binds,binds,binds,binds,binds,binds,binds,
"14A1 (antibody, mouse IgG1, V domains shown) VH: QIQLVQSGPELKKPGETVKISCKASGYTFTNYGMNWVKQAPGKGLKWMGWINTYSGVPTYADDFKGRFAFSLETSASTAYLQINNFKNEDTATYFCARFSYYGRHYFDYWGQGTALTASS VL: DIVLTQSPASLAVSLGQRATISCKASQSVDYDGDSYMNWYQQKPGQPPKLLIYAASNLKSGIPARFSGSGSGTDFTLNIHPVEEEDAATYYCQQTTDDPPWTFGGGTKLEIK",binds,binds,binds,no binding,binds,binds,no binding (tested: about 330 ng/mL),
"7D4 (antibody, mouse IgG1, V domains shown) VH: QIQLVQSGPELKKPGETVKISCKASGYTFTNYGMNWVKQAPGKDLKWMGWINTYSGVPTYADDFKGRFAFSLETSASTAYLQINNLKNEDTATYFCARFSYYGRHYFDYWGQGTTLTVSS VL: DIVLTQSPASLAVSLGQRATISCKASQSVDYDGDSYMNWYQQKPGQPPQLLIYAASNLGSGIPARFSGSGSGTDFTLNIHPVEEEDAATYYCHQSTDDPPWTFGGGTKLEIK",binds,binds,binds,no binding,binds,binds,no binding (tested: about 330 ng/mL),

# Second part, the binder after the results:
binding [1],binding [2],binding [3],binding [4],binding [5],binding [6],binding [7],binding [8],Binder
binds,binds,binds,no binding,binds,binds,no binding (tested: about 330 ng/mL),,"53A11 (antibody, mouse IgG2a, V domains shown) VH: EVQLQQSGPELLKPGASVKISCKASGYTFTDYTMHWVKQSHGKSLEWIGGINPYYGGTTYNEKFKDKATLTVDKSSSTAYMELRSLTSEDSAVYYCAKGDYYGGSYNYWGQGTTLTVSS VL: DIVLTQSLATLSVTPGDSVSLSCRASQDISNSLHWYQQKSHESPRLLIKYASQSISGIPSRFSGSGSGTDFTLSINSVETEDFGMYFCQQSNSWPYTFGGGTKLEIK"
binds,binds,binds,binds,binds,binds,binds,,"23H8 (antibody, mouse IgG2a, V domains shown) VH: EVQLQQSGPELLKPGASVKISCKASGYTFTDNTIHWVKQSHGKSLEWIGHINPYYGGTNNNEKFKDKATLTVDKSSSTAYMELRSLTSEDSAIYYCARKGIYYSSPFDYWGQGTTLTVSS VL: DIQMTQTTSSLSASLGDRVTISCRASQDINNYLNWYQQKPDGTVKLLISYTSKLHSGVPSRFSGSGSGTDYSLTISNLEREDFATYFCQQGNTLPFTFGSGTNLEIK"
binds,binds,binds,binds,binds,binds,binds,,"19E7 (antibody, mouse IgG2a, V domains shown) VH: QVQLQQPGSVLVRPGASVKLSCKASGYTFTTYWMHWVKQRPGQGLEWIGEIHPYSGNNNNNEKFKGKATLTVDTSSSTAYVDLSRLTSEDSAVYYCARYDSNYVFAYWGQGTLVTVSA VL: QIVLTQSPAIMSASPGEGVTITCSASSSVSYMHWFQQKPGTSPKLWIYSTSNLASGVPARFSGSGSGTSYSLTISRMEAEDAATYYCQQRDSYLTFGSGTKLEVK"
binds,binds,binds,no binding,binds,binds,no binding (tested: about 330 ng/mL),,"55A1 (antibody, mouse IgG2a, V domains shown) VH: QIHLVQSGPELKKPGETVKISCKASGYTFTNYGMNWVKQAPGKGLKWMGWINTYSGVPTYAGDFKGRFAFSLETSASTAYLQINNLKNEDTATYFCARRGYYGRRYFDVWGTGTTVTVSS VL: DIVLTQSPASLAVSLGQRATISCKASQSVDYDVDSYMHWYQQKPGQPPKLLIYAASNLASGIPARFSGGGSGTDFTLNIHPVEEEDVATYYCQQTIEDPPTFGGGTKLEIK"
,,,,binds,,,binds,"16F6 (antibody, V domains shown) VH: QVQLQQSGAELMKPGASVKISCKATGYTFSTYWIAWVKQRPGHGLEWIGEILPGSAKTKYNKKFKGKATFTADTSSNTAYMQLSSLTSEDSAVYYCAVYDYGADYWGQGTSVTVSS VL: DIVMTQSHKFMSTSVGDRVSITCKASQDVYTAVAWYQQKPGQSPKLLIYSASYRFTGVPDRFTGSGAGTEFTFTINSVQAEDLAVYYCQQHYSIPRTFGGGTKLEIK"
